Laboratory results from PMC6003972.
For at least one entry, the source does not settle the construct or the ends of the probe. Results from cells or extracts need not show a direct contact. For some assays here: Protein sequences can lack the tags named with them.

By UniProt entry, the sequences of proteins in these tests, tags left out.
UniProt Q04206, whole entry: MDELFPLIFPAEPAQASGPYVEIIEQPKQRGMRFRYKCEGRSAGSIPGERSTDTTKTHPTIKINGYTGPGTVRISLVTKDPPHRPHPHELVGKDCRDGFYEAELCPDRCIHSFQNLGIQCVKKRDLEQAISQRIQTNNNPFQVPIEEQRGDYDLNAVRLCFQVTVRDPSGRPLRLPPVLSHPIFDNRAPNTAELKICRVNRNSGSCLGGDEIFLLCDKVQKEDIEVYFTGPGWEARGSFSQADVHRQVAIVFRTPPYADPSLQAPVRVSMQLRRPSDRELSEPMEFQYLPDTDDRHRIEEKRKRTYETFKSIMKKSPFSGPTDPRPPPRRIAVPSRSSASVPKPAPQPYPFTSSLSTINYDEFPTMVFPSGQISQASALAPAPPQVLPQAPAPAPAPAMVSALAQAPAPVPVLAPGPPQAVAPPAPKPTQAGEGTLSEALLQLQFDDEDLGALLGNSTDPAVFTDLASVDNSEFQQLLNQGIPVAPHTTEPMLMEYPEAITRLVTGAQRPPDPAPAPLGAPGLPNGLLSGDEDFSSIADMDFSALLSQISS

Assays:
[1] = target: NF-kB p65 (UniProt Q04206); assay: EMSA supershift; details: KYSE150 nuclear extract 2 ug, 20 fmol probe, anti-p65, LightShift chemiluminescent EMSA kit, 20 uL reaction, 2 ug nuclear extract, room temperature 25 min, antibody with extract 10 min at 4 C, protein in an extract
[2] = target: T1, Rel-B (UniProt Q01201); assay: EMSA supershift; details: KYSE150 nuclear extract 2 ug, 20 fmol probe, anti-Rel-B, LightShift chemiluminescent EMSA kit, 20 uL reaction, 2 ug nuclear extract, room temperature 25 min, antibody with extract 10 min at 4 C, protein in an extract
T1 sequence (looked up, limits assumed): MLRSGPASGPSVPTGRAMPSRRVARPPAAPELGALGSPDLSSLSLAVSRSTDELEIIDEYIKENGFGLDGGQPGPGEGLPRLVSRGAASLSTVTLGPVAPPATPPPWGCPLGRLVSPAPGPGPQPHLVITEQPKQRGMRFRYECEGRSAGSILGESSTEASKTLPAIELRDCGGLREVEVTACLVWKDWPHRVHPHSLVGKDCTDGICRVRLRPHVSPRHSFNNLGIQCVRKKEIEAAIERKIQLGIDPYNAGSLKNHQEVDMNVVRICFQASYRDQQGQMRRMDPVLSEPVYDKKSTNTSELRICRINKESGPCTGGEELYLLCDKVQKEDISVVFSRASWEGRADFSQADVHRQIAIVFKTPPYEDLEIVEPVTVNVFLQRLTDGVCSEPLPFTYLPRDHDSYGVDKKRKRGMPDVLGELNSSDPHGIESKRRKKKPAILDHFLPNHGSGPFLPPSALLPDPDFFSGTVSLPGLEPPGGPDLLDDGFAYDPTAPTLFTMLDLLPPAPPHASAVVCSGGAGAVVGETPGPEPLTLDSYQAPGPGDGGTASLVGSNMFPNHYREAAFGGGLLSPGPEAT

What does the source list for “TGGGGAGGAGCTGCCAGGATTCAGGAGTTTCCTGGGTGAG (double strand) [SLC52A3 TBS3 EMSA probe (-2782/-2743)]”?
binding result [1]: binds; binding result [2]: binds
